The values that follow come from publication PMC5833715.

By UniProt entry, the sequences of proteins in these tests, tags left out. Where a name states a change or a piece, a line headed by the entry shows the natural chain unless it says otherwise.
UniProt P35613: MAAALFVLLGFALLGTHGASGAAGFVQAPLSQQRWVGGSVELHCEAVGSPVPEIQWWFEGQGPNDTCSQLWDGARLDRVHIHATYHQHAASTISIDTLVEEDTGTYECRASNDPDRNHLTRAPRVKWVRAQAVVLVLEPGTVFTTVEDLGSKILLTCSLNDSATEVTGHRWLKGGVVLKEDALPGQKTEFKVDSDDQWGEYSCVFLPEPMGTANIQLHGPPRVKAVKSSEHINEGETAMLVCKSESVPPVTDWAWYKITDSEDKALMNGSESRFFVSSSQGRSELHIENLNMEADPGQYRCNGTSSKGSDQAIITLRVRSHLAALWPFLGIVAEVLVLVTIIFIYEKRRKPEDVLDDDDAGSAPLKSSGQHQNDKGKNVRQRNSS
UniProt Q9Y4K3: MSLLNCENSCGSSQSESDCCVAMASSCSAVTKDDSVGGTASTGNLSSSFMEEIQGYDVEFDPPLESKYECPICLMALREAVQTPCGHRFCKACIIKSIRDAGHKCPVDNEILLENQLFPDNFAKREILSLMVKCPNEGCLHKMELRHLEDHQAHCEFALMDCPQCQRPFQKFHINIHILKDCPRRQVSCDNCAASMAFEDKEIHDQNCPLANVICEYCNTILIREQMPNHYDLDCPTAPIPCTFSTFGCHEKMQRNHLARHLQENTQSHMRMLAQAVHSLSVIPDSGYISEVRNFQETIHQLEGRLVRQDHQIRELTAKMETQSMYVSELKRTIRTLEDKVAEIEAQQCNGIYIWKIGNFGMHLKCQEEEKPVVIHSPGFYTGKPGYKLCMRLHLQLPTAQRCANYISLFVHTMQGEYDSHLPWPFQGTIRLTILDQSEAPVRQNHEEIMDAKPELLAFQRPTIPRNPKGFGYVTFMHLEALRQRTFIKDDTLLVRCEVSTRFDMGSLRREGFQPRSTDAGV

These are yes or no findings as the source states them, for the method shown. In cells and extracts the contact can be indirect. Binding calls can cover weak binding; strength is not graded here.

This experiment addresses CD147/Basigin (human (endogenous in HaCaT and A431)) (UniProt P35613). The experiment in a line: co-IP; endogenous immunoprecipitation with a CD147 antibody (control IgG) from HaCaT and A431 cell extracts; NP40 buffer, overnight at 4 °C, protein A/G beads; western blotting. Background: In western blotting, separated proteins are transferred to a membrane and probed.

“EGFR (epidermal growth factor receptor) (from UniProt P00533 25-1210)”: the binding entry is listed as “binds”. The same measure for “Tumor necrosis factor receptor-associated factor 6 (TRAF6) (from UniProt Q9Y4K3 1-522)”: “binds”.
